Screen size: about 580,000 compounds; about 6,100 (1.1%) were called active. Inconclusive results, whose numbers are uncertain, are shown with a selection of clear calls. Calls come from the whole dose curve; as a rule, active = well fitted inhibition curve with a large enough effect; inconclusive = small, poorly fitted or top-dose-only effect, or another doubt; inactive = no such curve, though single readings can be large or run the other way. Potencies of inconclusive entries are doubtful fits and often do not repeat.
Target: Polyunsaturated fatty acid lipoxygenase ALOX12 (Homo sapiens) (UniProt P18054)
Experiment: Primary qHTS assay for inhibitors of human arachidonate 12S-lipoxygenase (ALOX12): Round 2
Details: purified 12hLO, xylenol orange hydroperoxide absorbance; activity change, negative = inhibition: at 108 µM (top of the series) unless noted
Method in brief: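 Purified human 12hLO at 150 nM in 25 mM Hepes, 0.01% Triton X-100, pH 7.0, preincubated 15 min at room temperature with compound. Reaction started with 40 uM arachidonic acid, 30 min at room temperature. Hydroperoxide measured by Fe-xylenol orange, 573/405 nm absorbance ratio.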
% is set by controls: 0 for no effect and ±100 for the full control effect; potency is the fitted concentration of half-maximal effect.

By UniProt entry, the sequences of proteins in these tests, tags left out. Where a name states a change or a piece, a line headed by the entry shows the natural chain unless it says otherwise.
UniProt P18054: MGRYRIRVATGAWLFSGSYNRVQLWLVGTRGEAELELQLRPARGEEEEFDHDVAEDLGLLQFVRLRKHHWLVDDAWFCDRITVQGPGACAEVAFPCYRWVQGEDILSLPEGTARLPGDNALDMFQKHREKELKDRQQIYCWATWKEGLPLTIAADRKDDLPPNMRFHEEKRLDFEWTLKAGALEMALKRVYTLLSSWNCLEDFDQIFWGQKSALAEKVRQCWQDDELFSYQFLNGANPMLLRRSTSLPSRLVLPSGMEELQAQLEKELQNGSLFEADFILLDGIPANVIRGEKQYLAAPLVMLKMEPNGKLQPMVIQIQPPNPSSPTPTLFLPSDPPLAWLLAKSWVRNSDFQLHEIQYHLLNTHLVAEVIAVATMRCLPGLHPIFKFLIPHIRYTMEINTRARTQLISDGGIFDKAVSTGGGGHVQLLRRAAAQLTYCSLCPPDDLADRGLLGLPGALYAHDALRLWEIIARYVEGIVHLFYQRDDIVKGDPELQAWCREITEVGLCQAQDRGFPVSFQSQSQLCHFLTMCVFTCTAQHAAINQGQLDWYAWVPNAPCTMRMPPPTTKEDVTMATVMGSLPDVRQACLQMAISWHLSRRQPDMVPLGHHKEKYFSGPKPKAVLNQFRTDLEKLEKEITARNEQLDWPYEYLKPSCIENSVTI

With CC(NC(=O)/C(C#N)=C1\N=C(NC(=O)c2ccco2)c2ccccc21)c1ccccc1 (stereo not drawn) as the molecule, how does the Potency read?
The Potency was inconclusive: 22.4 µM [inhibitor, partial curve, poor fit].

For COc1cc(NC(=O)c2cc3ccccc3o2)ccc1NC(=O)c1ccccc1Cl, which Potency is on record?
The Potency was inconclusive: 44.7 µM [inhibitor, single point].

With CN1CCN(C(=O)c2cccc(COc3cc(Cl)ccc3Cl)c2)CC1 as the molecule, how does the “activity change, negative = inhibition” value read?
Its value is inactive: -1.64%.

With CC(NC(=O)C1CCCC1)c1ccc(Cl)s1 (stereo not drawn) as the molecule, how does the “activity change, negative = inhibition” value read?
Its value is inactive: -2.31%.

Cc1cc(C(C)(C)C)nc2[nH]n(-c3ccccc3)c(=O)c12 was tested. Which “activity change, negative = inhibition” value did it give?
Its value is inactive: -6.79%.

For O=C(Nc1ccc(Cl)c(C(F)(F)F)c1)C1Cc2c(-c3ccc4c(c3)OCO4)ccnc2O1 (stereo not drawn), which “activity change, negative = inhibition” value is on record?
The value was inactive: -23.4%.

Cc1ccc(-c2ccc(=O)n(CC(=O)Nc3ccc(C(C)C)cc3)n2)cc1 was tested. Which Potency did it give?
Its Potency is inconclusive: 70.8 µM [inhibitor, partial curve, poor fit].

COC(=O)c1ccc(C2C(C#N)=C(N)Oc3cc(O)ccc32)cc1 (stereo not drawn) was tested. Which Potency did it give?
The Potency was active: 25.1 µM.

CCOCCCNC(=S)N1CCN(Cc2ccco2)CC1 was tested. Which Potency did it give?
Its Potency is inconclusive: 7.94 µM [inhibitor, full curve, poor fit].

With C=CCOc1ccc(C2c3c(oc4ccc(C)cc4c3=O)C(=O)N2CCCN2CCOCC2)cc1 (stereo not drawn) as the molecule, how does the Potency read?
Its Potency is inconclusive: 12.6 µM [inhibitor, full curve, poor fit].

How did the Potency turn out when Oc1ccc(-c2nc3ccccc3s2)cc1 was run?
The Potency was inconclusive: 79.4 µM [inhibitor, partial curve, poor fit].

How did the “activity change, negative = inhibition” value turn out when O=C(CNC(=O)c1ccco1)N=Nc1c(O)n(CCc2ccccc2)c2ccccc12 was run?
Its value is inactive: -0.568%.

For NC(c1csc(Nc2ccc(C(F)(F)F)cn2)n1)C1CCCCC1 (stereo not drawn), which Potency is on record?
The Potency was inconclusive: 44.7 µM [inhibitor, partial curve, poor fit].

CC1=C(C(=O)Nc2ccccc2C)C(c2ccc(C(C)(C)C)cc2)NC(=S)N1 (stereo not drawn) was tested. Which Potency did it give?
Its Potency is inconclusive: 44.7 µM [inhibitor, partial curve, poor fit].

Which Potency does the source give for CCCNC(=O)C(C)NC(=O)c1cc(C2CC2)nc2c1cnn2C(C)C (stereo not drawn) here?
The Potency was inconclusive: 6.31 µM [inhibitor, partial curve, poor fit].

How did the “activity change, negative = inhibition” value turn out when Cc1ccc(-n2nc(C)c3c(C)cc(=O)n(CC(=O)NC(C)C)c32)cc1 was run?
Its value is inactive: 3.45%.

How did the Potency turn out when Cc1ccccc1OCCSc1nc2cc(S(=O)(=O)N(C)C)ccc2o1 was run?
The Potency was inconclusive: 39.8 µM [inhibitor, single point].

How did the Potency turn out when CC(=O)C1=C(O)C(CSCc2ccccc2)N(C)C1=O (stereo not drawn) was run?
The Potency was active: 10 µM.

With CCC(CO)Nc1ccn2nc(-c3cccs3)cc2n1 (stereo not drawn) as the molecule, how does the Potency read?
Its Potency is inconclusive: 35.5 µM [inhibitor, partial curve, poor fit].

How did the “activity change, negative = inhibition” value turn out when NS(=O)(=O)c1nn2cc(-c3ccccc3)nc2s1 was run?
The value was inactive: 0%.

Which Potency does the source give for Nc1c(-c2ccccc2)cnc2ncnn12 here?
Its Potency is inconclusive: 20 µM [inhibitor, full curve, poor fit].

With N#Cc1cccc(NS(N)(=O)=O)c1 as the molecule, how does the Potency read?
Its Potency is inconclusive: 12.6 µM [inhibitor, partial curve, poor fit].

For O=C(CC(Cc1ccccc1)C(=O)O)Nc1ccc(F)cc1 (stereo not drawn), which Potency is on record?
Its Potency is inconclusive: 0.708 µM [inhibitor, full curve, poor fit].

How did the Potency turn out when CCOc1ccc(NC(=O)COc2ccccc2)c2cccnc12 was run?
The Potency was inconclusive: 25.1 µM [inhibitor, partial curve, poor fit].

How did the Potency turn out when COc1cc(/C=C(\C#N)c2nc3ccccc3n2C)cc(OC)c1O was run?
The Potency was inconclusive: 44.7 µM [inhibitor, partial curve, poor fit].

Which Potency does the source give for CCCCN1CC[C@H]2C=CC[C@@H](C(=O)NCCc3ccccc3)[C@H]2C1=O here?
The Potency was inconclusive: 0.0794 µM [inhibitor, full curve, poor fit].

Which “activity change, negative = inhibition” value does the source give for COc1cccc(C2=C(C(C)=O)Sc3nnc(-c4ccccc4)n3N2C(C)=O)c1 here?
Its value is inactive: 3.74%.

How did the Potency turn out when CCC(=O)Nc1nc(=S)ss1 was run?
Its Potency is inconclusive: 35.5 µM [inhibitor, partial curve, poor fit].

Which Potency does the source give for CCc1c(C(=O)Nc2ccc(C)c(C)c2)[nH]c(C)c1C(C)=O here?
The Potency was inconclusive: 100 µM [inhibitor, partial curve, poor fit].

COc1cc(CCC(=O)OCc2ccc(Cl)cc2)cc(OC)c1OC was tested. Which Potency did it give?
The Potency was inconclusive: 44.7 µM [inhibitor, partial curve, poor fit].

COC(C(=O)NNS(=O)(=O)c1ccc([N+](=O)[O-])cc1)c1ccccc1 (stereo not drawn) was tested. Which Potency did it give?
The Potency was inconclusive: 44.7 µM [inhibitor, partial curve, poor fit].

With Cc1cc(C(=O)NCc2ccc(CN3CCCC3)cc2)sc1C as the molecule, how does the Potency read?
Its Potency is inconclusive: 10 µM [inhibitor, partial curve, poor fit].

Which Potency does the source give for Cc1cccc(C(=O)NCC(=O)OCC(=O)c2ccc(Cl)s2)c1 here?
The Potency was inconclusive: 44.7 µM [inhibitor, partial curve].

With O=C(Cc1c[nH]c2ccccc12)Nc1cccc(C(=O)NC2CC2)c1 as the molecule, how does the “activity change, negative = inhibition” value read?
The value was inactive: 28.7%.

O=C(c1ccccc1F)N1CCn2c(nnc2-c2ccncc2)C1 was tested. Which activity change, negative = inhibition did it give?
Its activity change, negative = inhibition is inactive: 4.19% [at 6.33 µM].

With Clc1ccc(N2CCN(Cc3nnc(-c4ccc5c(c4)OCO5)o3)CC2)cc1 as the molecule, how does the “activity change, negative = inhibition” value read?
Its value is inactive: -28.9%.

For COc1ccc(-c2cc(C[C@@H]3CC[C@H](O)[C@@H](CNCc4ccccc4OC)O3)no2)cc1, which Potency is on record?
The Potency was inconclusive: 31.6 µM [inhibitor, full curve].

How did the “activity change, negative = inhibition” value turn out when Nc1ccc(C(CC(=O)O)n2cccc2)cc1 (stereo not drawn) was run?
Its value is inactive: -10.2%.

With Cc1cnc(NC(=O)c2sc(Nc3ccccc3)nc2N)o1 as the molecule, how does the “activity change, negative = inhibition” value read?
The value was inactive: 176%.

With O=C(C1CC(=O)N(c2ccccc2)C1)N1CCCCCC1 (stereo not drawn) as the molecule, how does the “activity change, negative = inhibition” value read?
Its value is inactive: 0%.

For CC1=CC(=O)C2=C(C)CC[C@@H]3[C@H](OC(=O)[C@H]3C)[C@@H]12, which “activity change, negative = inhibition” value is on record?
The value was inactive: 1.16%.

With Cc1oc(-c2nc(C#N)c(N3CCCCCC3)o2)cc1S(=O)(=O)N1CCOCC1 as the molecule, how does the “activity change, negative = inhibition” value read?
The value was inactive: 2.41%.

How did the “activity change, negative = inhibition” value turn out when CC1CC1c1ccc(/C=C(\C#N)C(=O)Nc2ccccc2Cl)o1 (stereo not drawn) was run?
The value was inactive: -2.39%.

Which Potency does the source give for O=C(CN1CCCCCCC1)N/N=C/c1ccc([N+](=O)[O-])o1 here?
The Potency was inconclusive: 6.31 µM [inhibitor, full curve, poor fit].

With COCCn1c(=O)c(-c2cccc(Cl)c2)nc2cncnc21 as the molecule, how does the Potency read?
Its Potency is inconclusive: 50.1 µM [inhibitor, partial curve, poor fit].

For CC(C)NC(=O)N1CCN2C(=O)c3cc(-c4ccc5c(c4)OCO5)ccc3NC(=O)[C@H]2C1, which Potency is on record?
Its Potency is inconclusive: 28.2 µM [inhibitor, full curve].

CCCCN(CC)C(=O)c1c[nH]c2ccc(S(=O)(=O)Nc3cccc(OC)c3)cc2c1=O was tested. Which Potency did it give?
The Potency was inconclusive: 50.1 µM [inhibitor, partial curve, poor fit].

For COc1ccc(NC(=O)C2=C(C)Nc3c(C(=O)Nc4ccc(C)cc4)cnn3C2c2cccc(Cl)c2)cc1 (stereo not drawn), which Potency is on record?
The Potency was inconclusive: 112 µM [inhibitor, partial curve, poor fit].

With CN1CCN(CC(=O)O)CC1 as the molecule, how does the “activity change, negative = inhibition” value read?
Its value is inactive: -9.02%.

How did the Potency turn out when COC(=O)c1ccc2c(=O)sc(N3CCC(C(N)=O)CC3)nc2c1 was run?
The Potency was inconclusive: 44.7 µM [inhibitor, partial curve, poor fit].

COc1ccc(NC(=O)CC2Nc3cccc4cccc(c34)NC2=O)cc1 (stereo not drawn) was tested. Which Potency did it give?
The Potency was inconclusive: 35.5 µM [inhibitor, partial curve, poor fit].

For CCc1nc2ccc(C(=O)N3CCN(S(=O)(=O)CC)CC3)cn2c1N(CC)C(=O)NCCc1ccccc1, which Potency is on record?
Its Potency is inconclusive: 3.16 µM [inhibitor, full curve, poor fit].

For O=S(=O)(c1ccc(Cl)cc1)N1CCN(C/C=C/c2ccccc2)CC1, which Potency is on record?
Its Potency is inconclusive: 20 µM [inhibitor, partial curve, poor fit].

How did the “activity change, negative = inhibition” value turn out when O=C(Nc1ccc(Cl)cc1C(=O)NCC1CCCO1)c1ccc(Cl)cc1Cl (stereo not drawn) was run?
Its value is inactive: 4.84%.

Which Potency does the source give for Cc1cccc(-c2nc3ccc(C(=O)NCCN4CCN(C)CC4)cc3nc2-c2cccc(C)c2)c1 here?
The Potency was inconclusive: 56.2 µM [inhibitor, partial curve, poor fit].

Which Potency does the source give for COCCN1CCCCCC(O)c2cc(C(=O)N3CCN(c4ccccc4F)CC3)ccc21 (stereo not drawn) here?
The Potency was inconclusive: 14.1 µM [inhibitor, full curve, poor fit].

How did the “activity change, negative = inhibition” value turn out when Cn1ncc2c(NCCc3ccccc3)nc(Cl)nc21 was run?
Its value is inactive: 0.319%.

With C=CCn1cc(C(=O)NCCCOCC)c(=O)c2cc(S(=O)(=O)N(CC)CC)ccc21 as the molecule, how does the Potency read?
Its Potency is inconclusive: 63.1 µM [inhibitor, partial curve, poor fit].

How did the Potency turn out when Clc1ccccc1CSc1nncn2c1cc1occc12 was run?
Its Potency is inconclusive: 126 µM [inhibitor, single point].

How did the “activity change, negative = inhibition” value turn out when COc1c(O)ccc(/C=N\NC(=O)c2ccc3c(c2)OCO3)c1[N+](=O)[O-] was run?
The value was inactive: 16.3%.

For COc1ccc(C(C(=O)NCc2ccccc2)N(Cc2cccnc2)C(=O)c2snc(C(N)=O)c2N)cc1OC (stereo not drawn), which “activity change, negative = inhibition” value is on record?
The value was inactive: 17.3%.

For CNc1ccc(OC)cc1-n1cnc(-c2ccc([N+](=O)[O-])cc2)c1, which Potency is on record?
Its Potency is inconclusive: 1 µM [inhibitor, full curve, poor fit].

With COc1ccc(-c2cc(C)no2)cc1S(=O)(=O)N1CCN(c2ccc(C(C)=O)cc2)CC1 as the molecule, how does the “activity change, negative = inhibition” value read?
Its value is inactive: -9.77%.

How did the “activity change, negative = inhibition” value turn out when O=C1C2C3C=CC(C3=C3CCCCC3)C2C(=O)N1c1ccccc1 (stereo not drawn) was run?
Its value is inactive: 449%.

CCc1cc(Cl)c(OC)c(C(=O)NC[C@@H]2CCCN2CC)c1O was tested. Which Potency did it give?
The Potency was inconclusive: 50.1 µM [inhibitor, single point].

COc1ccc(-c2onc(C)c2C)cc1S(=O)(=O)Nc1ccc(OC(F)(F)F)cc1 was tested. Which Potency did it give?
The Potency was inconclusive: 79.4 µM [inhibitor, partial curve, poor fit].

With Cc1cc2oc(=O)cc(CN3CCN(CC(=O)N4CCCCC4C)CC3)c2cc1C (stereo not drawn) as the molecule, how does the Potency read?
Its Potency is inconclusive: 1.26 µM [inhibitor, full curve, poor fit].

For O=C1CCCC2=C1C(c1cccc(Br)c1)n1nc(-c3ccco3)nc1N2 (stereo not drawn), which Potency is on record?
The Potency was inconclusive: 31.6 µM [inhibitor, single point].

From PubChem BioAssay AID1671190 (National Center for Advancing Translational Sciences (NCATS), 2021)
